Where a name gives a salt, the structure may show the parent alone. The list shows a part of the results. The calls rarely recur for the same compound in another form.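 Kinases were expressed as nanoluciferase fusions in K562 cells and luminescence was read every 4 h between 2 and 18 h as percent of control, DMSO set to 100% and a positive control to 0%. A time point counts as decreased when the signal drops significantly (2 sigma). The hit call is the authors' own, does not follow from the count of time points alone, and its rule is not shown.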
Legend:
Test in all cases: number of time points (of 5) at which kinase-Nluc abundance scored as decreased, DMSO-normalised (count); higher = more persistent destabilization
Conditions in all cases: K562; 2-18 h
[1] = biological target: CSNK1A1 (UniProt P48729)
[2] = biological target: CSNK1D (UniProt P48730)
[3] = biological target: DDR1 (UniProt Q08345)
[4] = biological target: DYRK1B (UniProt Q9Y463)
[5] = biological target: DYRK2 (UniProt Q92630)
[6] = biological target: EGFR (UniProt P00533)
[7] = biological target: EGFR_G719S (UniProt P00533)
[8] = biological target: EGFR_G719S_T790M (UniProt P00533)
[9] = biological target: EGFR_L718V (UniProt P00533)
[10] = biological target: EGFR_L858R (UniProt P00533)
[11] = biological target: EGFR_L861Q (UniProt P00533)
[12] = biological target: EGFR_T790M (UniProt P00533)
[13] = biological target: EPHA2 (UniProt P29317)
[14] = biological target: ERBB3 (UniProt P21860)
[15] = biological target: ERBB4_R711C (clone: ERBB4_mut) (UniProt Q15303)
[16] = biological target: ERN1 (UniProt O75460)
[17] = biological target: FGFR1 (UniProt P11362)
[18] = biological target: FGFR2 (UniProt P21802)
[19] = biological target: FGFR3 (UniProt P22607)
[20] = biological target: FGR (UniProt P09769)

The chains behind the UniProt entries cited, without tags or fusion partners. Where a name states a change or a piece, a line headed by the entry shows the natural chain unless it says otherwise.
UniProt Q08345: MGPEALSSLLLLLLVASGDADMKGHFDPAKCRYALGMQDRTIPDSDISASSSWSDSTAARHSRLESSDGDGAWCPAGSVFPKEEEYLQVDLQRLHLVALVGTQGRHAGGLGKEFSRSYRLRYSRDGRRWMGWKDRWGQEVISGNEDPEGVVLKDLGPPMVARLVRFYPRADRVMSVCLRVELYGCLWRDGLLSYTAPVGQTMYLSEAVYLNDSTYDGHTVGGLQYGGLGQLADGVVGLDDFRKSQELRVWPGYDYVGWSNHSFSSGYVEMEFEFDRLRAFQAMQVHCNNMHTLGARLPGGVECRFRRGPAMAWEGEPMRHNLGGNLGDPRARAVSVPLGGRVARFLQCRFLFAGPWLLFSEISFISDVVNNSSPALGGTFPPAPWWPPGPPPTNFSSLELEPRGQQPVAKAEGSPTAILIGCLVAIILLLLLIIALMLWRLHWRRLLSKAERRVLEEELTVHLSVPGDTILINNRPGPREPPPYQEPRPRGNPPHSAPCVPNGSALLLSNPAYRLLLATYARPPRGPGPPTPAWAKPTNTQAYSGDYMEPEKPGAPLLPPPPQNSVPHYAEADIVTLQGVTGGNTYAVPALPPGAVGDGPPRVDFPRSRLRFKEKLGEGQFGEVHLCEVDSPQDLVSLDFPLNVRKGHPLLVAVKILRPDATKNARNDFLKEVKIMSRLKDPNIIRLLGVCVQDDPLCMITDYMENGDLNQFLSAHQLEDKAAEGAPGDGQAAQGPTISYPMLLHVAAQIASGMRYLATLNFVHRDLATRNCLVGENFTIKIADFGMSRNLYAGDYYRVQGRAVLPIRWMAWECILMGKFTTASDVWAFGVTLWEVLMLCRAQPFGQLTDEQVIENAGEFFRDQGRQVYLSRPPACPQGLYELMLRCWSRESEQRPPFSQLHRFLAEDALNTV
UniProt Q92630: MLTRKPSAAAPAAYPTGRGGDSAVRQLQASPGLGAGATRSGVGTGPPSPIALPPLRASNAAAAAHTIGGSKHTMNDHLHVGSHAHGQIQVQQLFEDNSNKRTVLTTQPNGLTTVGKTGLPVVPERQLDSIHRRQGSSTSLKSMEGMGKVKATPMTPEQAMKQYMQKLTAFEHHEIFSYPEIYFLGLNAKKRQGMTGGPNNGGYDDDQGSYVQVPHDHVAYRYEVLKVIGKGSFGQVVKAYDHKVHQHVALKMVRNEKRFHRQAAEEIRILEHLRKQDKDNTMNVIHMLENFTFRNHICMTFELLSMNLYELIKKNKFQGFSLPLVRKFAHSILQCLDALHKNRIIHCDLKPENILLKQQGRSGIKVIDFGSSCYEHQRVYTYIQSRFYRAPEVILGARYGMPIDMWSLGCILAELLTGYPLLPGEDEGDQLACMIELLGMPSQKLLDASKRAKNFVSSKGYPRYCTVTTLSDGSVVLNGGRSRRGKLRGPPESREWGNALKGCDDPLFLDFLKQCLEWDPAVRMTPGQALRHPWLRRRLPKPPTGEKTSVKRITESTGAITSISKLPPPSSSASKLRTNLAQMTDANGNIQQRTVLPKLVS
UniProt P29317, whole entry: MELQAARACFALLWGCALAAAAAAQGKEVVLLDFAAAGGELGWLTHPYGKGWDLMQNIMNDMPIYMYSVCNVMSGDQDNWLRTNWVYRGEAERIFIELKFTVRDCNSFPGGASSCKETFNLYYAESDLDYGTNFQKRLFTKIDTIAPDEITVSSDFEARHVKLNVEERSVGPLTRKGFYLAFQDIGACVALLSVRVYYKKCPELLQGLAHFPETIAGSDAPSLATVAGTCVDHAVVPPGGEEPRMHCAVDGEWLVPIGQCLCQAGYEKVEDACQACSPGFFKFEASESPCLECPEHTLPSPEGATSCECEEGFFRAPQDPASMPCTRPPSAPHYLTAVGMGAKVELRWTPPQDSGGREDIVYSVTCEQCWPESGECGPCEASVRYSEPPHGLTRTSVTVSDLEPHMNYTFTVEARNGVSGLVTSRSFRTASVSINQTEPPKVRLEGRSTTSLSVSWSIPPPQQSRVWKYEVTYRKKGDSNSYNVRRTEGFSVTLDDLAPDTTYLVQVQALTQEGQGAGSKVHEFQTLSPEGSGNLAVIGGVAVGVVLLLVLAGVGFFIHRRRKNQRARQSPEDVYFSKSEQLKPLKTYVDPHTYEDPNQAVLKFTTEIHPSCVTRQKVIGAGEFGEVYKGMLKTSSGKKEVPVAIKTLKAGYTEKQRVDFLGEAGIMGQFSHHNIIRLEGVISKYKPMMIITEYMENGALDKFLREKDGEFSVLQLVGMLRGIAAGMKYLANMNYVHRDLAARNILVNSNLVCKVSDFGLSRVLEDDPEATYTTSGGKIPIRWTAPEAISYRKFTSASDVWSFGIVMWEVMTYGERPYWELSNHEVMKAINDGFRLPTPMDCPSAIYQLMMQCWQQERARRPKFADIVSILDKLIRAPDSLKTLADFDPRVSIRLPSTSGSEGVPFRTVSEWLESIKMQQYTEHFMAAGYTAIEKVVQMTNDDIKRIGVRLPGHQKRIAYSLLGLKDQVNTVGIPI
UniProt P21860, whole entry: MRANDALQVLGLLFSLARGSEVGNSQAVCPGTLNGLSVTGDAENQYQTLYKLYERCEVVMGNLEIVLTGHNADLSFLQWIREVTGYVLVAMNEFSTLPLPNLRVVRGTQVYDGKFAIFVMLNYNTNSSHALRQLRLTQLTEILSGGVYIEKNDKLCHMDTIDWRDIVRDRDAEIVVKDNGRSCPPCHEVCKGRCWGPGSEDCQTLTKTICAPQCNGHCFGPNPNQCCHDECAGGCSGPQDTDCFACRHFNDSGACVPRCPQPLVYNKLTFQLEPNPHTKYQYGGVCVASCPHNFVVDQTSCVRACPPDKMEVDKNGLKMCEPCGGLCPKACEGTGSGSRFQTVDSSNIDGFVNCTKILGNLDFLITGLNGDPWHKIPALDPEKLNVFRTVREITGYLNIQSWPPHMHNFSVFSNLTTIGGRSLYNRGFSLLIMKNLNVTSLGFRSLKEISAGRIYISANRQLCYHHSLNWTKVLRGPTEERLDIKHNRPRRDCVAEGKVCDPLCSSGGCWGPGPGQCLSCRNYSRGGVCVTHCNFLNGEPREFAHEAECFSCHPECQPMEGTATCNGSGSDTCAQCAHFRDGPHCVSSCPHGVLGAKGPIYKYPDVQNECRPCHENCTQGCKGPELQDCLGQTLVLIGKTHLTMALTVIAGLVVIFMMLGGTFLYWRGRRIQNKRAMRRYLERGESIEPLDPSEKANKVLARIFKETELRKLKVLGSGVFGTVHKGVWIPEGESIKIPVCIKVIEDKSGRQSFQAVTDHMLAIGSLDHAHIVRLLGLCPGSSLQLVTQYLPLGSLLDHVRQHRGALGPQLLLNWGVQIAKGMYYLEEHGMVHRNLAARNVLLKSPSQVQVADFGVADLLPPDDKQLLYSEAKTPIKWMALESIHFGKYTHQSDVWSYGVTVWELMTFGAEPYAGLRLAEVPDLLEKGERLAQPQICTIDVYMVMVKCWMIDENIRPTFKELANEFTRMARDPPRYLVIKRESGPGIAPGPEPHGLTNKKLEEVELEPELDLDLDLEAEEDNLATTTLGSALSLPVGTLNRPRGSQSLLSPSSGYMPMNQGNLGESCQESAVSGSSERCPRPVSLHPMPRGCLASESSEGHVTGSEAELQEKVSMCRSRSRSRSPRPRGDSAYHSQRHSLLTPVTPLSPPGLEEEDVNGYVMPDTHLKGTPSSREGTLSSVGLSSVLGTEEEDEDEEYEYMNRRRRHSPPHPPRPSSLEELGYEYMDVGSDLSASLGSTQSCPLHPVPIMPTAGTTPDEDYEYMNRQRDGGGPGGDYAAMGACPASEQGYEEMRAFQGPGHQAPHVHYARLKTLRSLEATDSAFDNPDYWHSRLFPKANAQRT
UniProt O75460: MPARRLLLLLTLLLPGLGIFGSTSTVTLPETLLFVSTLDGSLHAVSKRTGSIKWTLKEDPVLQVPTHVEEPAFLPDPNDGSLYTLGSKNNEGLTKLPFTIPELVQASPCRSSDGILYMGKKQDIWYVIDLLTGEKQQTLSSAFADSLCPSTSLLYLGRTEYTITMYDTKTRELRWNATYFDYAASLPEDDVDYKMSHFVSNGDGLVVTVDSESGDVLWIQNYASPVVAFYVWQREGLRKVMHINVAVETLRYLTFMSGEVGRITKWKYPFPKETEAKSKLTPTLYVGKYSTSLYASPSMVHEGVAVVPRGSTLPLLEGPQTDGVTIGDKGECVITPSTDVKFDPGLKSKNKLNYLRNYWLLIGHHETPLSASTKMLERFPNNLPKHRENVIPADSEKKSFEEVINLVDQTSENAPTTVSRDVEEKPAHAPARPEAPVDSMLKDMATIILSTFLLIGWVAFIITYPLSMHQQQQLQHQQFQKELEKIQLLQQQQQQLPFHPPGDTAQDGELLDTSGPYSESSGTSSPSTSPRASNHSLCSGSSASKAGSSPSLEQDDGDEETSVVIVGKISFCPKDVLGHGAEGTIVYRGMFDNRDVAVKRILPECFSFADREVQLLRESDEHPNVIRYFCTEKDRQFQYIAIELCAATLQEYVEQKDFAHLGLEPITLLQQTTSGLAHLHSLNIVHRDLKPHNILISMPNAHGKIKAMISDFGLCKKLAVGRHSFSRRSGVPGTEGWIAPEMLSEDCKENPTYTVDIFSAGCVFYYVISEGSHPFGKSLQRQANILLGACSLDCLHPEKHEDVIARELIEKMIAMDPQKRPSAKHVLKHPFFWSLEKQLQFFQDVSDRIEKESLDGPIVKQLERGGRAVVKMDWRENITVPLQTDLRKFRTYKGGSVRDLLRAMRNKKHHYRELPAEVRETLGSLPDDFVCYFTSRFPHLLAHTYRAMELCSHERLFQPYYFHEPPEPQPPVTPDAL
UniProt P21802, whole entry, looked up: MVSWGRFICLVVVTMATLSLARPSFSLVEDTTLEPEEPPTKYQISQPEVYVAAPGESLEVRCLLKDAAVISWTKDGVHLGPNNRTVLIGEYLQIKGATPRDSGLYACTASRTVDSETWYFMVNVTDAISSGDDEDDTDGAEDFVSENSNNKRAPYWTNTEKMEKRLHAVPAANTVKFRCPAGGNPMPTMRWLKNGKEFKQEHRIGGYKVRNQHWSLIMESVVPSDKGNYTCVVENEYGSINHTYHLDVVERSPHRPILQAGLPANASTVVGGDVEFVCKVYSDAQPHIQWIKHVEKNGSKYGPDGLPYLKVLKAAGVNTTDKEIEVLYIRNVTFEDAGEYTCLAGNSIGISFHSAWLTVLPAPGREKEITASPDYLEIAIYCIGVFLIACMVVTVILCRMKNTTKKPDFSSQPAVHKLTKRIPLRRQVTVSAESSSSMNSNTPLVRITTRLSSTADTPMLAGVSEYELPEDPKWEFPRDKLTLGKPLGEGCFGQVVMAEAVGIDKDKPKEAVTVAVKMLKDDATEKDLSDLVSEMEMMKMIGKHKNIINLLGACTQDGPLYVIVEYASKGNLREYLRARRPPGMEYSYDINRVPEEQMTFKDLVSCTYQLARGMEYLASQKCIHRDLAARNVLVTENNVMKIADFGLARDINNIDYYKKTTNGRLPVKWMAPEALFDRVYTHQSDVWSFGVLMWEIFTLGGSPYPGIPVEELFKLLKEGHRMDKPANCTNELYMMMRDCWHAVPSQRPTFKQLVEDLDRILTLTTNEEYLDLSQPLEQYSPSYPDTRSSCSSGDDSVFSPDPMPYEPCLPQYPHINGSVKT
UniProt P22607, whole entry, looked up: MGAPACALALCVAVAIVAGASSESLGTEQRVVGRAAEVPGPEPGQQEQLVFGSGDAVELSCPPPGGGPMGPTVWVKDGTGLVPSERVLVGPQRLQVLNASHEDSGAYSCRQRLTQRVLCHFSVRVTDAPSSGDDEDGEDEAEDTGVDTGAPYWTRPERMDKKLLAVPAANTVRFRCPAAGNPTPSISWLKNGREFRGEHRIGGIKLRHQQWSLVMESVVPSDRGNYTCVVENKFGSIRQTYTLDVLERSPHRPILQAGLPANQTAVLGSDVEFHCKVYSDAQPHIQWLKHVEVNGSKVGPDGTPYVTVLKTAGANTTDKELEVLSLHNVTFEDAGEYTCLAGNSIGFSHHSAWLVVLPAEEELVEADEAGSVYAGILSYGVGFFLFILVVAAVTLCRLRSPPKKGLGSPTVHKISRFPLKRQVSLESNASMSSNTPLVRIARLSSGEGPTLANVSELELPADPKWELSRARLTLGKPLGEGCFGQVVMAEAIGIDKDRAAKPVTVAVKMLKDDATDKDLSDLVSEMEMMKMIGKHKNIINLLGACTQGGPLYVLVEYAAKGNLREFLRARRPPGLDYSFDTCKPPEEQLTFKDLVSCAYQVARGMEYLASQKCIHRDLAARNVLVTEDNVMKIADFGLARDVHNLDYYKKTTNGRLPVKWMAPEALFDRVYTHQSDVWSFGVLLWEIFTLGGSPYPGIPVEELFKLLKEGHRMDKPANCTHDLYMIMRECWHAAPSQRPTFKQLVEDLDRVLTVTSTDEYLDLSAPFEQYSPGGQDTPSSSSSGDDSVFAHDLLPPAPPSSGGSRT

Measured: number of time points

O=C1Cc2ccccc2N1 [Oxindole] (10 µM)
0: [1] | [2] | [3] | [4] | [5] | [6] | [7] | [8] | [9] | [10] | [11] | [12] | [13] | [14] | [15] | [16] | [17] | [18] | [19] | [20]

COc1cc2ncnc(Nc3cc(Br)c(O)c(Br)c3)c2cc1OC (2.5 µM)
0: [1] | [2] | [3] | [4] | [5] | [6] | [7] | [8] | [9] | [10] | [11] | [12] | [13] | [14] | [15] | [16] | [17] | [18] | [19] | [20]

CC1(C)C=Cc2c(ccc(C(=O)/C=C/c3ccc(O)cc3)c2O)O1 [4-Hydroxylonchocarpin] (10 µM)
0: [1] | [2] | [3] | [4] | [5] | [6] | [7] | [8] | [9] | [10] | [11] | [12] | [13] | [14] | [15] | [16] | [17] | [18] | [19] | [20]

CN(C)c1ccc(/C=C2\C(=O)Nc3ccccc32)c2ccccc12 (10 µM)
2: [13]
0: [1] | [2] | [3] | [4] | [5] | [6] | [7] | [8] | [9] | [10] | [11] | [12] | [14] | [15] | [16] | [17] | [18] | [19] | [20]

COc1ccc(Cl)cc1N(CC(=O)Nc1ccc2c(c1)OCO2)S(=O)(=O)c1ccccc1 (2.5 µM)
0: [1] | [2] | [3] | [4] | [5] | [6] | [7] | [8] | [9] | [10] | [11] | [12] | [13] | [14] | [15] | [16] | [17] | [18] | [19] | [20]

COc1cc(N2CCC(N3CCN(C)CC3)CC2)ccc1Nc1ncnc(Nc2ccccc2S(=O)(=O)C(C)C)n1 (10 µM)
0: [1] | [2] | [3] | [4] | [5] | [6] | [7] | [8] | [9] | [10] | [11] | [12] | [13] | [14] | [15] | [16] | [17] | [18] | [19] | [20]

C=CC(=O)Nc1cccc(Oc2nc(Nc3ccc(N4CCN(C)CC4)cc3OC)ncc2Cl)c1 (10 µM)
0: [1] | [2] | [3] | [4] | [5] | [6] | [7] | [8] | [9] | [10] | [11] | [12] | [13] | [14] | [15] | [16] | [17] | [18] | [19] | [20]

Cc1cncc2cccc(S(=O)(=O)N3CCCNC[C@@H]3C)c12 [H-1152 (dihydrochloride)] (10 µM)
0: [1] | [2] | [3] | [4] | [5] | [6] | [7] | [8] | [9] | [10] | [11] | [12] | [13] | [14] | [15] | [16] | [17] | [18] | [19] | [20]

CN1CCN(c2ccc(-n3cc(-c4ccncc4OCC4CCNCC4)cn3)cc2)CC1 [MELK-8a (hydrochloride)] (10 µM)
2: [6] | [7] | [9] | [10] | [13]
1: [4] | [15]
3: [1] | [3] | [8] | [11] | [14]
4: [5]
0: [2] | [12] | [16] | [17] | [18] | [19] | [20]

Fc1ccc(-c2nc3n(c2-c2ccncc2)CCS3)cc1 (10 µM)
0: [1] | [2] | [3] | [4] | [5] | [6] | [7] | [8] | [9] | [10] | [11] | [12] | [13] | [14] | [15] | [16] | [17] | [18] | [19] | [20]

Cn1cc(C2=C(c3ccc(Cl)cc3Cl)C(=O)NC2=O)c2ccccc21 (10 µM)
0: [1] | [2] | [3] | [4] | [5] | [6] | [7] | [8] | [9] | [10] | [11] | [12] | [13] | [14] | [15] | [16] | [17] | [18] | [19] | [20]

COc1cc2nccc(Nc3cccc(Oc4ccccc4)c3)c2cc1OC (2.5 µM)
0: [1] | [2] | [3] | [4] | [5] | [6] | [7] | [8] | [9] | [10] | [11] | [12] | [13] | [14] | [15] | [16] | [17] | [18] | [19] | [20]

COc1cccc(-c2cc(=O)c3ccccc3o2)c1N (10 µM)
0: [1] | [2] | [3] | [4] | [5] | [6] | [7] | [8] | [9] | [10] | [11] | [12] | [13] | [14] | [15] | [16] | [17] | [18] | [19] | [20]

COCCNc1cc(NC(=O)N2CCCc3cc(CN4CCOCC4=O)c(C=O)nc32)ncc1C#N (10 µM)
0: [1] | [2] | [3] | [4] | [5] | [6] | [7] | [8] | [9] | [10] | [11] | [12] | [13] | [14] | [15] | [16] | [17] | [18] | [19] | [20]

CCc1c(C(=O)NNC(=O)[C@H](O)c2cc(F)cc(F)c2)ccc(O)c1C (10 µM)
0: [1] | [2] | [3] | [4] | [5] | [6] | [7] | [8] | [9] | [10] | [11] | [12] | [13] | [14] | [15] | [16] | [17] | [18] | [19] | [20]

3 structures out of the list, arranged by length of the SMILES, largest number first.
COCCNc1cc(NC(=O)N2CCCc3cc(CN4CCOCC4=O)c(C=O)nc32)ncc1C#N (10 µM)
0: [1] | [2] | [3] | [4] | [5] | [6] | [7] | [8] | [9] | [10] | [11] | [12] | [13] | [14] | [15] | [16] | [17] | [18] | [19] | [20]

CCc1c(C(=O)NNC(=O)[C@H](O)c2cc(F)cc(F)c2)ccc(O)c1C (10 µM)
0: [1] | [2] | [3] | [4] | [5] | [6] | [7] | [8] | [9] | [10] | [11] | [12] | [13] | [14] | [15] | [16] | [17] | [18] | [19] | [20]

COc1cc2nccc(Nc3cccc(Oc4ccccc4)c3)c2cc1OC (2.5 µM)
0: [1] | [2] | [3] | [4] | [5] | [6] | [7] | [8] | [9] | [10] | [11] | [12] | [13] | [14] | [15] | [16] | [17] | [18] | [19] | [20]

Remaining list, next part:

Nc1nccc(Oc2ccc3c(C(=O)Nc4cccc(C(F)(F)F)c4)cccc3c2)n1 (10 µM)
2: [15]
4: [5]
0: [1] | [2] | [3] | [6] | [7] | [8] | [9] | [10] | [11] | [12] | [16] | [17] | [18] | [19] | [20]
1: [4] | [13]
3: [14]

NC(=O)c1c(NC(=O)C2CC2)sc2c1CCCC2 (10 µM)
0: [1] | [2] | [3] | [4] | [5] | [6] | [7] | [8] | [9] | [10] | [11] | [12] | [13] | [14] | [15] | [16] | [17] | [18] | [19] | [20]

Reference: the supplement of paper PMC12823440, “Inhibitors supercharge kinase turnover through native proteolytic circuits” (Nature, 2025)
